# Measurements published in PubChem BioAssay AID2685 (National Center for Advancing Translational Sciences (NCATS), 2010).
# The list shows a part of the results. The main result of the screen is listed elsewhere. These columns were measured beside it and carry no call. Most of these compounds were active or inconclusive in the main read-out, so they are no random draw. Words in brackets tell the shape of the fitted curve; partial curves, single points and poor fits give uncertain potencies.
# Test: qHTS Assay for Lipid Storage Modulators in Drosophila S3 Cells;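 for cell number change: cells counted by Cell Tracker Red CMTPX staining in the red channel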
# Conditions: BODIPY lipid droplet fluorescence, 18-24 h; for cell number change: measured here: cell count max response, cells fed with added oleic acid
# Outline: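 Drosophila S3 cells loaded with oleic acid (400 uM, as added) and compounds at several concentrations; lipid droplets imaged by 488-nm laser-scanning cytometry, 500–530 nm intensity and object ratio to cell channel. Percent activity normalized to 20 uM Triacsin C.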
# [1] = measured here: cell number channel AC50, cells fed with added oleic acid
# [2] = measured here: lipid fluorescence (Fed channel) AC50, cells fed with added oleic acid
compound,measurement,setting,value
c1ccc(-c2cc(-c3ccncc3)nc3ccc4ccccc4c23)cc1,cell number change,,-11.6%
same,AC50,[1],"0.13 µM [falling, full curve, poor fit]"
same,AC50,[2],"0.146 µM [falling, full curve]"
CCOC(=O)Cn1cc(Cl)cc(C(=O)Nc2ccccc2)c1=O,cell number change,,20.7%
same,AC50,[2],"6.51 µM [rising, partial curve]"
O=C(CSc1nncc(=O)[nH]1)NC1CCCCC1,cell number change,,-7.83%
same,AC50,[2],"6.51 µM [falling, single point]"
COc1ccc(CNc2ncnc3cc(Cl)ccc23)cc1,cell number change,,-27.1%
same,AC50,[2],"29.1 µM [falling, single point]"
CC(=O)Nc1ccc(NC(=O)CC23CC4CC(CC(C4)C2)C3)cc1,cell number change,,2.56%
O=C(CN1C(=O)CSc2ncccc21)N1CCOCC1,cell number change,,-36.5%
same,AC50,[1],"3.66 µM [falling, full curve]"
same,AC50,[2],"3.66 µM [falling, full curve]"
CCOc1ccccc1CN1CCC(n2nccc2NC(=O)CCCc2ccccc2)CC1,cell number change,,-7.65%
same,AC50,[1],"0.103 µM [falling, full curve, poor fit]"
same,AC50,[2],"29.1 µM [rising, single point]"
CSCC[C@H](NC(=O)c1ccc(Cl)c([N+](=O)[O-])c1)c1nc2ccccc2[nH]1,cell number change,,-4.35%
same,AC50,[2],"16.4 µM [falling, single point]"
COc1cc(C#N)ccc1OCC(=O)Nc1ccc(C)c(S(=O)(=O)N2CCOCC2)c1,cell number change,,-10.8%
same,AC50,[1],"0.116 µM [falling, full curve, poor fit]"
Cc1ccc2cccc(NS(=O)(=O)c3ccccc3)c2n1,cell number change,,6.49%
Cc1ccc2c(C)c(C(=O)N3CCN(C4CCS(=O)(=O)C4)CC3)oc2c1C (stereo unspecified),cell number change,,-5.57%
same,AC50,[2],"0.731 µM [falling, single point]"
CCN1/C(=C/C=C/c2sc3ccccc3[n+]2CC)Sc2ccccc21,cell number change,,-94.3%
same,AC50,[1],"5.17 µM [falling, full curve]"
same,AC50,[2],"0.82 µM [falling, full curve]"
Cc1ccc(C2=NNC(c3ccc(Cl)cc3)=Nc3ccccc32)o1,cell number change,,12.3%
same,AC50,[2],"1.16 µM [falling, single point]"
Nc1cc2c(cc1[N+](=O)[O-])OCCO2,cell number change,,-32%
same,AC50,[1],"13 µM [falling, single point]"
Cc1cccc(C2(c3cccc(C)c3)CC2C(=O)Nc2ccc([N+](=O)[O-])cc2O)c1 (stereo unspecified),cell number change,,-41.1%
same,AC50,[1],"20.6 µM [falling, single point]"
same,AC50,[2],"18.4 µM [falling, single point]"
c1ccc2c3c(cc(N4CCOCC4)c2c1)OC1(N2CCOCC2)CCCCC1O3 (stereo unspecified),cell number change,,-2.7%
Cc1ccccc1N(CC(=O)NCCc1ccccc1)C(=O)CCC(=O)Nc1ccccn1,cell number change,,8.56%
O=C(COc1ccc(F)cc1)Nc1cc(Cl)ccc1-n1cncn1,cell number change,,75%
same,AC50,[1],"0.146 µM [rising, full curve]"
O=C(COc1ccccc1)Nc1ccc2c(c1)C(=O)N(CC1CCCO1)C2=O (stereo unspecified),cell number change,,22.7%
same,AC50,[1],"0.116 µM [rising, full curve, poor fit]"
same,AC50,[2],"2.06 µM [rising, partial curve, poor fit]"
COP(=O)(OC)c1nc(-c2cccc3ccccc23)oc1NCc1ccccc1,cell number change,,-28.7%
same,AC50,[2],"14.6 µM [falling, single point]"
Cc1cccc(-n2c(O)c(C=NCCCN3CCOCC3)c3ccccc3c2=O)c1,AC50,[1],"0.58 µM [rising, single point]"
Cc1nc(N2CCN(c3ccccc3)CC2)c2c3c(sc2n1)CCC3,cell number change,,86.4%
same,AC50,[1],"2.91 µM [rising, full curve, poor fit]"
same,AC50,[2],"0.461 µM [rising, full curve]"
COC(=O)CCSCC(=O)Nc1nnc(C)s1,cell number change,,-77.3%
same,AC50,[1],"13 µM [falling, partial curve, poor fit]"
same,AC50,[2],"2.91 µM [falling, full curve]"
N#CC1=C2Sc3ccccc3N2CCCC1=O,cell number change,,-12.8%
same,AC50,[2],"6.51 µM [rising, single point]"
COc1ccccc1NC(=O)c1sc2ncn(Cc3ccc(C)cc3)c(=O)c2c1C,AC50,[2],"0.731 µM [rising, single point]"
CCCC(=O)N(Cc1cc(=O)[nH]c2ccccc12)c1ccccc1OC,cell number change,,-1.39%
same,AC50,[2],"29.1 µM [rising, partial curve]"
Cc1nn2cc(-c3ccc(-c4ccccc4)cc3)nc2s1,cell number change,,6.82%
CCC(=O)Nc1ccc(C(=O)NCc2ccccn2)cc1,cell number change,,45.9%
COc1ccccc1-n1nnnc1SCC(=O)Nc1oc(C)c2c(C)n[nH]c(=O)c12,cell number change,,73.5%
same,AC50,[1],"2.06 µM [rising, full curve]"
O=c1c2ccccc2nc2c3ccccc3c(NCc3ccccn3)nn12,cell number change,,-38.3%
same,AC50,[1],"29.1 µM [falling, single point]"
same,AC50,[2],"29.1 µM [falling, single point]"
COc1ccccc1N1CCN(C(=O)CN2C(=O)c3cccc4cccc(c34)C2=O)CC1,cell number change,,14.3%
same,AC50,[2],"0.00461 µM [falling, full curve, poor fit]"
CCN(CC(=O)Nc1ccc(NC(C)=O)cc1)C(=O)c1cn(-c2ccccc2)nc1-c1cccs1,cell number change,,95.2%
same,AC50,[1],"23.1 µM [rising, partial curve, poor fit]"
O=S1(=O)N=C2CCCCCN2C(c2ccncc2)N1 (stereo unspecified),cell number change,,10.2%
CCn1c(SCc2ccccc2)nc2cc(OC)c(OC)cc2c1=O,cell number change,,-2.03%
same,AC50,[2],"6.51 µM [falling, single point]"
COc1ccc(NC(=O)c2sc(-c3ccccc3)nc2C)c(OC)c1,cell number change,,24.3%
O=C(COc1ccccc1)NCC(=O)N/N=C/c1ccccc1,cell number change,,-66.7%
same,AC50,[1],"29.1 µM [falling, partial curve, poor fit]"
same,AC50,[2],"14.6 µM [rising, partial curve]"
COc1ccccc1C(=O)Nc1c(C)n(C)n(-c2ccccc2)c1=O,cell number change,,-3.29%
same,AC50,[2],"0.146 µM [rising, full curve, poor fit]"
CC(C)C(NC(=O)c1ccc2c(c1)OCCO2)c1nc2ccccc2[nH]1 (stereo unspecified),cell number change,,3.67%
same,AC50,[2],"0.13 µM [falling, full curve, poor fit]"

# No new results follow: entries from further up.
compound,measurement,setting,value
Cc1nn2cc(-c3ccc(-c4ccccc4)cc3)nc2s1,cell number change,,6.82%
CCC(=O)Nc1ccc(C(=O)NCc2ccccn2)cc1,cell number change,,45.9%
COc1ccccc1-n1nnnc1SCC(=O)Nc1oc(C)c2c(C)n[nH]c(=O)c12,cell number change,,73.5%
